These are yes or no findings as the source states them, for the method shown. In cells and extracts the contact can be indirect. A yes stands for co-enrichment or nearness to the bait. Other partners may have been found.
Biological target: FOXC1 (Forkhead box C1), endogenous (human (endogenous in Fujioka and primary AML cells)) (UniProt Q12948)
Experiment: affinity purification with mass spectrometry; RIME: cells cross-linked with 2 mM DSG then 1% formaldehyde, nuclear fraction sonicated, anti-FOXC1 polyclonal antibody on Protein G Dynabeads overnight at 4°C, washed in RIPA buffer; two analyses in Fujioka cells and one in BB475 primary AML blast …

Protein sequences, listed by entry. Tags and fused reporters are not part of them.
UniProt Q12948: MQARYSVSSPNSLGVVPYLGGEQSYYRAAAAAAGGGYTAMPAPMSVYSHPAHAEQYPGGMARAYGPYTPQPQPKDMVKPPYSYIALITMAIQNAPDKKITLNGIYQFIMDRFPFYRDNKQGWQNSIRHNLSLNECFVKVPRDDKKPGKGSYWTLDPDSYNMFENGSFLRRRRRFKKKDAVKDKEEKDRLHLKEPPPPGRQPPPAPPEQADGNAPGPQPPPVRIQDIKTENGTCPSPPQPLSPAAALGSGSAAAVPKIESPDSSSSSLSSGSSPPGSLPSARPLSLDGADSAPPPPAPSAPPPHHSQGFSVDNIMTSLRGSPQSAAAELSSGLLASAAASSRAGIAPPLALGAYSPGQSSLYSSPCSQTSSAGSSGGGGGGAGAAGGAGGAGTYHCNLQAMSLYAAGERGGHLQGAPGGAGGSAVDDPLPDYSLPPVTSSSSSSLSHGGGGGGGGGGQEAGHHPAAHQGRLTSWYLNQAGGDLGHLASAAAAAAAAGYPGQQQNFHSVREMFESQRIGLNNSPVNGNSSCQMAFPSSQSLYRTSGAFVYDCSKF
UniProt P49715: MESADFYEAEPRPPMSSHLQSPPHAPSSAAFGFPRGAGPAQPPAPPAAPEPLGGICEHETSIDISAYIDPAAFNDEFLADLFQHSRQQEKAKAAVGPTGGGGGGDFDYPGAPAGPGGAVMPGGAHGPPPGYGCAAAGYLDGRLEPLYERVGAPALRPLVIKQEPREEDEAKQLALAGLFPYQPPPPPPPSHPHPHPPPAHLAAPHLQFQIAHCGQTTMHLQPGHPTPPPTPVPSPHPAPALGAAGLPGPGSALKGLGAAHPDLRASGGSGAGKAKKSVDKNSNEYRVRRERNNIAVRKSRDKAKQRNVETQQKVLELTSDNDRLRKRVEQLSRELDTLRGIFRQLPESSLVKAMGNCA
UniProt Q04726: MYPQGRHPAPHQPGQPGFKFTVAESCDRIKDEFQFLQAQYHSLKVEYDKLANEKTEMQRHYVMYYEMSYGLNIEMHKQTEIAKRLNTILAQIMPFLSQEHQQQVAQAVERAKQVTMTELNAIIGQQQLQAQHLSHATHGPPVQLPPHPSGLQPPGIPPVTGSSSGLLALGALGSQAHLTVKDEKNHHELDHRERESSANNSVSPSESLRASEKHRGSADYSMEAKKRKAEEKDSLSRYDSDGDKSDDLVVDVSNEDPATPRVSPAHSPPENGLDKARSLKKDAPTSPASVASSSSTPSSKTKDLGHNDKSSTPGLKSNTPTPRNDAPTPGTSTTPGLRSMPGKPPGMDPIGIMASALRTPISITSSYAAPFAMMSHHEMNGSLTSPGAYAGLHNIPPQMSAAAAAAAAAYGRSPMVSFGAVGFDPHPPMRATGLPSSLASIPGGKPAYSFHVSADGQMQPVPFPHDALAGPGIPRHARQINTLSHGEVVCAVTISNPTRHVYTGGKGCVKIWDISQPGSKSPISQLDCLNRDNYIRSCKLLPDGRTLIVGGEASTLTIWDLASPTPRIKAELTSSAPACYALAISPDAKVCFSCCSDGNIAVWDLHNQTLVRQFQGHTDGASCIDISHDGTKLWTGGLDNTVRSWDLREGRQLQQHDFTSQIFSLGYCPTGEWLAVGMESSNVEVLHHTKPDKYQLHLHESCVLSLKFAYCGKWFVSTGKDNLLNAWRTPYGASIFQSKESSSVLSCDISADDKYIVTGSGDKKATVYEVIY
UniProt Q92769: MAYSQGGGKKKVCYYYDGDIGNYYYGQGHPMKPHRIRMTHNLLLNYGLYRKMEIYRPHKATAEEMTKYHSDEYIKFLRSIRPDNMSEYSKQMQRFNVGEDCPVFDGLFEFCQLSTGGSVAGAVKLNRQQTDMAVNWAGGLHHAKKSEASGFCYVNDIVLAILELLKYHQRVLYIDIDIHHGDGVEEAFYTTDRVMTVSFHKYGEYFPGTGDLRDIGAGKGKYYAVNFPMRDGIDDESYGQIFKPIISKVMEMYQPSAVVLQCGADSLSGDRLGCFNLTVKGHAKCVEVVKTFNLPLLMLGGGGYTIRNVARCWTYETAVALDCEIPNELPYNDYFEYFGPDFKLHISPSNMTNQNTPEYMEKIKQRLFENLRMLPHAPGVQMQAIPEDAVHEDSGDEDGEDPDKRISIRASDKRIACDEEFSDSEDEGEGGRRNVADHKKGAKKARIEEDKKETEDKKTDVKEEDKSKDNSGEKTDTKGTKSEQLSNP
UniProt Q13547: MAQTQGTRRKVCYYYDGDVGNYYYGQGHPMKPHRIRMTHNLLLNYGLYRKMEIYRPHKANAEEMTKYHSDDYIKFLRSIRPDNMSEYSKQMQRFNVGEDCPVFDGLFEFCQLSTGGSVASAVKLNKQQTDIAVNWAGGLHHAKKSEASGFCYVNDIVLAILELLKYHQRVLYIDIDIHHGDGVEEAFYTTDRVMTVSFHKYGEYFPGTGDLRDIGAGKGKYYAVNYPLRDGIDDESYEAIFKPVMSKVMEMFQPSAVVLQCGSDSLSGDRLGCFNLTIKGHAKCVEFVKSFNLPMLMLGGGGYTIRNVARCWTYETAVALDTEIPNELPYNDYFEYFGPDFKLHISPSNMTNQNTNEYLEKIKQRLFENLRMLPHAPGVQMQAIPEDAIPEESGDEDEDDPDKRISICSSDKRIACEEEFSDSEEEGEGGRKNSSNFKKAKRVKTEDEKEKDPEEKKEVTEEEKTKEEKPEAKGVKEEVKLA
UniProt Q13951: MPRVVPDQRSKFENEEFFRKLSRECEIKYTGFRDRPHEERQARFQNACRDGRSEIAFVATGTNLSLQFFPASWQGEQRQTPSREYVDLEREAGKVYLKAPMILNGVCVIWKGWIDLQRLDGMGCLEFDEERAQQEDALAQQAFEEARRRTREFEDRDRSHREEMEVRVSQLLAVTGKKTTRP
UniProt Q8TAQ2: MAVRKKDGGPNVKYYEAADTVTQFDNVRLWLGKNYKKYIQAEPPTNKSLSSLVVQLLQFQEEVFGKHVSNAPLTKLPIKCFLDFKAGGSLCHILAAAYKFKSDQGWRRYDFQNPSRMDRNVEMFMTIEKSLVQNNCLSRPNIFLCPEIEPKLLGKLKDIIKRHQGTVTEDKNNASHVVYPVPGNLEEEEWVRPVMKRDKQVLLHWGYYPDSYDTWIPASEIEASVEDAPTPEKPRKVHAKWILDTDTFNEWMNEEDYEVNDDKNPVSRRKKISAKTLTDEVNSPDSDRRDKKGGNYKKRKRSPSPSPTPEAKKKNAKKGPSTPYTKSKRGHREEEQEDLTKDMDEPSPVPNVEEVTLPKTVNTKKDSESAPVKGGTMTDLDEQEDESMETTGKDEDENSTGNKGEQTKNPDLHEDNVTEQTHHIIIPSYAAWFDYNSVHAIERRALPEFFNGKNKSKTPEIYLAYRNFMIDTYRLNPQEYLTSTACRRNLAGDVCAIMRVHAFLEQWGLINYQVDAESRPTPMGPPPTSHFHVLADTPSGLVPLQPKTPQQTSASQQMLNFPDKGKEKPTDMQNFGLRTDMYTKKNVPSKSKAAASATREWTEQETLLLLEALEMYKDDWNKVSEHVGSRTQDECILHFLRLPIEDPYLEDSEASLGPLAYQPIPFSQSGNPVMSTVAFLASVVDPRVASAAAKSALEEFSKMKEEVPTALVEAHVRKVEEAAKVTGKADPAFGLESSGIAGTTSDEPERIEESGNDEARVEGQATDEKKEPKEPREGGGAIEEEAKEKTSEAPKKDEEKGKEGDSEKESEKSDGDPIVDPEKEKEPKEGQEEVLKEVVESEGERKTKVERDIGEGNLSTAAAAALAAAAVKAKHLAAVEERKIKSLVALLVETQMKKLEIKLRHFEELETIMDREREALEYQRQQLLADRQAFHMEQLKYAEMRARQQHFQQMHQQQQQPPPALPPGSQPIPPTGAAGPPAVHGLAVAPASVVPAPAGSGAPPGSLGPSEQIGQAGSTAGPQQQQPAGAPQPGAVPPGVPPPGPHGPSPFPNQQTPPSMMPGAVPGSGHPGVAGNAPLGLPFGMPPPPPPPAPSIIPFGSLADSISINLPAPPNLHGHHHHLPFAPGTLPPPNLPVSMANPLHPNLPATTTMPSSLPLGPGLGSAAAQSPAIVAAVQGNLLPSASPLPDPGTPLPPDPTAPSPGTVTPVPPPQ
UniProt Q09472: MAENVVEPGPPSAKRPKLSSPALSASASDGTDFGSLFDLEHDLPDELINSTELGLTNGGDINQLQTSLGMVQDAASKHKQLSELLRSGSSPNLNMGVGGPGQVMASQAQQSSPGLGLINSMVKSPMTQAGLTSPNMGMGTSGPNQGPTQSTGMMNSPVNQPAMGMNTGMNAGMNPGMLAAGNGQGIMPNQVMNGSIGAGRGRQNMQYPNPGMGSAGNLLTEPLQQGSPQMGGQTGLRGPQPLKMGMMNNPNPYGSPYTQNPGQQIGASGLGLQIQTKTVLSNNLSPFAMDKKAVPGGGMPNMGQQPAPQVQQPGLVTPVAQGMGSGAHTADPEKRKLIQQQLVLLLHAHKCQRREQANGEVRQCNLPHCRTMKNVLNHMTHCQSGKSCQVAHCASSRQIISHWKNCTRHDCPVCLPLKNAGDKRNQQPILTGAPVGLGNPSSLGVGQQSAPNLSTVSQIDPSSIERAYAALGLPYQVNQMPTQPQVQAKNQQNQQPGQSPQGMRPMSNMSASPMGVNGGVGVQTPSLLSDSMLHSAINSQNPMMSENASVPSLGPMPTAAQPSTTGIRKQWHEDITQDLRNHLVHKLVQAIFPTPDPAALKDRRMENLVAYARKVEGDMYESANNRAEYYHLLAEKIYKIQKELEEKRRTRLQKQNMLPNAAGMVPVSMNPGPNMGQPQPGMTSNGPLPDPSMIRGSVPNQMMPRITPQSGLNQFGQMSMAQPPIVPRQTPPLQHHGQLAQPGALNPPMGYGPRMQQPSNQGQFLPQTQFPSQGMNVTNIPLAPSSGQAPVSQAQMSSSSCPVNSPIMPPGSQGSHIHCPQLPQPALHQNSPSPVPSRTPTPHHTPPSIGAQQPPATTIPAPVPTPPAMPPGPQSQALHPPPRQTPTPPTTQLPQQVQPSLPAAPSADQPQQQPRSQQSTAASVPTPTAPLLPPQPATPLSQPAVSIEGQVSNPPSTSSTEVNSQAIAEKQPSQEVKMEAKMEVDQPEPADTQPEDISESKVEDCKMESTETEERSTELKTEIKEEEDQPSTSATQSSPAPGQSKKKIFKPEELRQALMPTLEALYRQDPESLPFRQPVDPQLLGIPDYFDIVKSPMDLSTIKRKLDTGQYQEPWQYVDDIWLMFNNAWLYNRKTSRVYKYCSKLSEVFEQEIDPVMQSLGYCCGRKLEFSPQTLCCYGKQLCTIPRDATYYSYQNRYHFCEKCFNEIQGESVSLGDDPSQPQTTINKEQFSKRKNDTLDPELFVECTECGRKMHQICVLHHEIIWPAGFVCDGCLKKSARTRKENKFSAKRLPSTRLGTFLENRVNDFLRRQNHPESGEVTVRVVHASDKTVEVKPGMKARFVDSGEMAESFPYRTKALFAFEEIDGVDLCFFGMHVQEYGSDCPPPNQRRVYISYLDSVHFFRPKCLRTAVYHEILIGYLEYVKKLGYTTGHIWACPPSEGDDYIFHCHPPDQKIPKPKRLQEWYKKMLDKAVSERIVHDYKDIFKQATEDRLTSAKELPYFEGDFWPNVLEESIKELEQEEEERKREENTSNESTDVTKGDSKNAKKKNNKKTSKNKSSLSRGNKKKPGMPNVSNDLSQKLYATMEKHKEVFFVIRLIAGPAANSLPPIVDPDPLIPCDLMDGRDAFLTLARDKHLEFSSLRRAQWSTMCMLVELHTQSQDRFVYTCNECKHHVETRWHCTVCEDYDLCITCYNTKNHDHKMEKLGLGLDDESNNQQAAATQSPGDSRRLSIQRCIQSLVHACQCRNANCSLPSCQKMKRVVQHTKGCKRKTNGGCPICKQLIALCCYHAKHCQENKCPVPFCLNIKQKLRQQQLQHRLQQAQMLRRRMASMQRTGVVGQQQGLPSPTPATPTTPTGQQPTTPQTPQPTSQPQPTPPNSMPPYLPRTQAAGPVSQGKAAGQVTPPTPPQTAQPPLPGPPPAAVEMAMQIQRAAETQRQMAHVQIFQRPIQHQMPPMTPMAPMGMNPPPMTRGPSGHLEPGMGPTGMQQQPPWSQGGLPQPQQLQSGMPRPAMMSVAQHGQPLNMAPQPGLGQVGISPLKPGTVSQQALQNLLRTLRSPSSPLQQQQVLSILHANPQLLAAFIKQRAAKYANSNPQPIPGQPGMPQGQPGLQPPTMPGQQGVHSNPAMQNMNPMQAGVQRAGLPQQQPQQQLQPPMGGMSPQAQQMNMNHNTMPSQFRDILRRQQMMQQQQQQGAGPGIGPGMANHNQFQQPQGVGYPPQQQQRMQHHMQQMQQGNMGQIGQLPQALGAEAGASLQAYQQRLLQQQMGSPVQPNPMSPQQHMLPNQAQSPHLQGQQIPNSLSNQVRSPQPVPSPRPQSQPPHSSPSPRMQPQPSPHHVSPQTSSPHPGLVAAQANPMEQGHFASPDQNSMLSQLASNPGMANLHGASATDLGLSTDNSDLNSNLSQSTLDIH

Substance	binding
CEBPA, endogenous (from UniProt P49715 1-358)	binds
Groucho co-repressor family member TLE3, endogenous (from UniProt Q04726 1-772)	binds
HDAC2, endogenous (from UniProt Q92769 1-488)	binds
histone deacetylase HDAC1, endogenous (from UniProt Q13547 1-482)	binds

Other lines, results leading:

binding	Substance
binds	CBFB, endogenous (from UniProt Q13951 1-182)
binds	SWI/SNF chromatin remodeling complex protein SMARCC2, endogenous (from UniProt Q8TAQ2 1-1214)
binds	histone acetyltransferase EP300, endogenous (from UniProt Q09472 1-2414)

— paper PMC8480281
